Source: patent US20130216513A1
No constants are given. Whether binding was seen depends on the method and setting. Some results given as binding are weak or reduced against the parent protein; the word gives no strength.

Amino acid sequences for entries named in this document (tags omitted). A change or cut given only in a name is not applied to a line headed by its entry. Residues count along the entry.
UniProt P07359, residues 17-652: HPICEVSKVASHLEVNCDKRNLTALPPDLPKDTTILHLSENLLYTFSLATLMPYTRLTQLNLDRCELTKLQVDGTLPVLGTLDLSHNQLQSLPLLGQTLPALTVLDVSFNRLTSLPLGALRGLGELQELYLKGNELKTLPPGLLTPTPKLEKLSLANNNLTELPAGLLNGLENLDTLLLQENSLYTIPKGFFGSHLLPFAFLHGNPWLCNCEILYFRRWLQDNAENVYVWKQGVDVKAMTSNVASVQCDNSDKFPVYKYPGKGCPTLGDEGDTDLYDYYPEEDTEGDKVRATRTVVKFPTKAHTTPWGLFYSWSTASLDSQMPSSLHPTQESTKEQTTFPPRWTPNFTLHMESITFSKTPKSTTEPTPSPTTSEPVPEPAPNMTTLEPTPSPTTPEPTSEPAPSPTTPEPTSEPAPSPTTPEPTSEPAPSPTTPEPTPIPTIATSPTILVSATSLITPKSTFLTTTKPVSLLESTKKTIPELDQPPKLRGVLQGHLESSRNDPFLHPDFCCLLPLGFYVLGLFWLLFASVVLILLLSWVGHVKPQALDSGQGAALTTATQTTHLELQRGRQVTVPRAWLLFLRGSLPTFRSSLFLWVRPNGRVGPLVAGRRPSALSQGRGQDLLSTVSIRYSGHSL
UniProt P08514: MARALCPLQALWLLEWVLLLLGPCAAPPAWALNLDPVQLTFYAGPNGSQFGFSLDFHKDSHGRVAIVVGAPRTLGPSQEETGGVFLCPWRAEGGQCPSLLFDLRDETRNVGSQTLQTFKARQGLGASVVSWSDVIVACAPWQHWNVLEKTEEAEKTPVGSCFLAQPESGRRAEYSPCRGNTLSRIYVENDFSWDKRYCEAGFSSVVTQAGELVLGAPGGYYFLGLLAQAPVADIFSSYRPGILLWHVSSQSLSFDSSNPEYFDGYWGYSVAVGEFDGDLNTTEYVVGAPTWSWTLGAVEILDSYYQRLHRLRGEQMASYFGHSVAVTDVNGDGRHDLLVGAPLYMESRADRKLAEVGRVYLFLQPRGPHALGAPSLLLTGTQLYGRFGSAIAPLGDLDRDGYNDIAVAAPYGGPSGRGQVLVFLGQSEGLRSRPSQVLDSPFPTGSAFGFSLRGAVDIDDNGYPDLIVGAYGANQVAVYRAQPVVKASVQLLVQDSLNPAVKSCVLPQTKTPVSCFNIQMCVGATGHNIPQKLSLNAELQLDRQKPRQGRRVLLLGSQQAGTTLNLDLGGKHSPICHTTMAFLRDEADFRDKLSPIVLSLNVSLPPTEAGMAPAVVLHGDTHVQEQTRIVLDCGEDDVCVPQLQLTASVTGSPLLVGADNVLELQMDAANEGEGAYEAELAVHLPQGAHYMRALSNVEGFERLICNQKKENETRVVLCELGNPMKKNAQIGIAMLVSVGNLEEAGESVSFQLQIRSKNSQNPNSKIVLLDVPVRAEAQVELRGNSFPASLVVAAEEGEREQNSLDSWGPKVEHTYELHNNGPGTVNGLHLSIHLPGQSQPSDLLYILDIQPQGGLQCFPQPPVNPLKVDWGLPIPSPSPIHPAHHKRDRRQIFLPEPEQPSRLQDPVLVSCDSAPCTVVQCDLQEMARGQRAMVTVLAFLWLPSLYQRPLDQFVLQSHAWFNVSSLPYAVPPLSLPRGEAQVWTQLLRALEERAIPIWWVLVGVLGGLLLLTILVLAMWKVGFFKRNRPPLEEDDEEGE
UniProt P05106: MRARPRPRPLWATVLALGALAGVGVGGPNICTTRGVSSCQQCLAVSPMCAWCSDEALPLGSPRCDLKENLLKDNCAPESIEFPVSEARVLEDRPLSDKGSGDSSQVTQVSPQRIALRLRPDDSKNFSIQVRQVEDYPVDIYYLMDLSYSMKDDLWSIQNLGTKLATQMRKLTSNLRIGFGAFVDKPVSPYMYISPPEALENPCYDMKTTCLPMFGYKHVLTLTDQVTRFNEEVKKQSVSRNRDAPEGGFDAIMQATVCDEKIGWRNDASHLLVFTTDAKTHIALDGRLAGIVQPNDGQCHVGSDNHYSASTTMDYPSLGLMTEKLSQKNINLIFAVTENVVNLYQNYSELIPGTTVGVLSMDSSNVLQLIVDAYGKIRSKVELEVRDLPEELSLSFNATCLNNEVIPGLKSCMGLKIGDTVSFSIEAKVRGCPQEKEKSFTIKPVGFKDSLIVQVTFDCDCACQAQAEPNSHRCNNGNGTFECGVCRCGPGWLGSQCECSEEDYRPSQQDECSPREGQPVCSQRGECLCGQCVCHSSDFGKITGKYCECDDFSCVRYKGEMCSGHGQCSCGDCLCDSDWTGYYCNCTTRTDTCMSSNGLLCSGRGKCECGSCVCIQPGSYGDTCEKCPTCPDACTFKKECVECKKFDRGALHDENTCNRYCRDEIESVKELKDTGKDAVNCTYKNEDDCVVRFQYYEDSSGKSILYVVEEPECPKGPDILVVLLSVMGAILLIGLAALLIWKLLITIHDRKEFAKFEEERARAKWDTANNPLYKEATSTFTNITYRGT
UniProt P08709: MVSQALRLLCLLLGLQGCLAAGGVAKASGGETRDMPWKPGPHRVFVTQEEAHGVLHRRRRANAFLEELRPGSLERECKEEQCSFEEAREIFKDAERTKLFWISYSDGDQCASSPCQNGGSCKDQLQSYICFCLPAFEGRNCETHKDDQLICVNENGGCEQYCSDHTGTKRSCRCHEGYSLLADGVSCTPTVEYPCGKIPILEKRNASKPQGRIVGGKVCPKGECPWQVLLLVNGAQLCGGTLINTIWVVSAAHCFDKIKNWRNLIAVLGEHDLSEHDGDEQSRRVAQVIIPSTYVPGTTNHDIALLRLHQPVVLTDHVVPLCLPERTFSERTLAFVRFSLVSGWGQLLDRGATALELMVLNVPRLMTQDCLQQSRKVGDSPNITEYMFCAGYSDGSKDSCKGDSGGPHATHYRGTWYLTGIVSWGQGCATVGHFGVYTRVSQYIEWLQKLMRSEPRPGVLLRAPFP

How the values were obtained:
[1] = target: platelet receptor GPIb-alpha (UniProt P07359); experiment: FACS on activated platelets; FIG. 48 (the legend and the next sentence name FVII-045 instead of FVII-049)
[2] = target: GPIIbIIIa on activated human platelets (human) (UniProt P08514+P05106); experiment: FACS on activated human platelets, FITC-labeled FVII antibody; reference FVIIaFc (FVII-011); FIG. 44C

Substance | binding [1] | binding [2]
FVII-049 (from UniProt P08709 61-212) (Fc fusion) | binds | –
FVII-066 (from UniProt P08709 61-212) (Fc fusion) | – | binds
